Results are given in words; binding and its absence hold for the method and conditions named. Binding seen in cells or lysates may run through a third protein. These calls come from enrichment with a bait or labelling near it, and not all partners need be listed.
Molecular target: CHD1^WT-Venus (chromodomain helicase DNA-binding 1, wild type) (human) (UniProt O14646)
Test: proximity labelling; antibody-based in situ biotinylation: fixed (4% PFA), permeabilised HeLa cells, anti-GFP primary antibody, HRP-conjugated secondary antibody, biotin-tyramide and H2O2 for 1 min (~20 nm radius), avidin pull-down, LC-MS/MS with label-free quantification; single biological replicate

By UniProt entry, the sequences of proteins in these tests, tags left out.
UniProt O14646: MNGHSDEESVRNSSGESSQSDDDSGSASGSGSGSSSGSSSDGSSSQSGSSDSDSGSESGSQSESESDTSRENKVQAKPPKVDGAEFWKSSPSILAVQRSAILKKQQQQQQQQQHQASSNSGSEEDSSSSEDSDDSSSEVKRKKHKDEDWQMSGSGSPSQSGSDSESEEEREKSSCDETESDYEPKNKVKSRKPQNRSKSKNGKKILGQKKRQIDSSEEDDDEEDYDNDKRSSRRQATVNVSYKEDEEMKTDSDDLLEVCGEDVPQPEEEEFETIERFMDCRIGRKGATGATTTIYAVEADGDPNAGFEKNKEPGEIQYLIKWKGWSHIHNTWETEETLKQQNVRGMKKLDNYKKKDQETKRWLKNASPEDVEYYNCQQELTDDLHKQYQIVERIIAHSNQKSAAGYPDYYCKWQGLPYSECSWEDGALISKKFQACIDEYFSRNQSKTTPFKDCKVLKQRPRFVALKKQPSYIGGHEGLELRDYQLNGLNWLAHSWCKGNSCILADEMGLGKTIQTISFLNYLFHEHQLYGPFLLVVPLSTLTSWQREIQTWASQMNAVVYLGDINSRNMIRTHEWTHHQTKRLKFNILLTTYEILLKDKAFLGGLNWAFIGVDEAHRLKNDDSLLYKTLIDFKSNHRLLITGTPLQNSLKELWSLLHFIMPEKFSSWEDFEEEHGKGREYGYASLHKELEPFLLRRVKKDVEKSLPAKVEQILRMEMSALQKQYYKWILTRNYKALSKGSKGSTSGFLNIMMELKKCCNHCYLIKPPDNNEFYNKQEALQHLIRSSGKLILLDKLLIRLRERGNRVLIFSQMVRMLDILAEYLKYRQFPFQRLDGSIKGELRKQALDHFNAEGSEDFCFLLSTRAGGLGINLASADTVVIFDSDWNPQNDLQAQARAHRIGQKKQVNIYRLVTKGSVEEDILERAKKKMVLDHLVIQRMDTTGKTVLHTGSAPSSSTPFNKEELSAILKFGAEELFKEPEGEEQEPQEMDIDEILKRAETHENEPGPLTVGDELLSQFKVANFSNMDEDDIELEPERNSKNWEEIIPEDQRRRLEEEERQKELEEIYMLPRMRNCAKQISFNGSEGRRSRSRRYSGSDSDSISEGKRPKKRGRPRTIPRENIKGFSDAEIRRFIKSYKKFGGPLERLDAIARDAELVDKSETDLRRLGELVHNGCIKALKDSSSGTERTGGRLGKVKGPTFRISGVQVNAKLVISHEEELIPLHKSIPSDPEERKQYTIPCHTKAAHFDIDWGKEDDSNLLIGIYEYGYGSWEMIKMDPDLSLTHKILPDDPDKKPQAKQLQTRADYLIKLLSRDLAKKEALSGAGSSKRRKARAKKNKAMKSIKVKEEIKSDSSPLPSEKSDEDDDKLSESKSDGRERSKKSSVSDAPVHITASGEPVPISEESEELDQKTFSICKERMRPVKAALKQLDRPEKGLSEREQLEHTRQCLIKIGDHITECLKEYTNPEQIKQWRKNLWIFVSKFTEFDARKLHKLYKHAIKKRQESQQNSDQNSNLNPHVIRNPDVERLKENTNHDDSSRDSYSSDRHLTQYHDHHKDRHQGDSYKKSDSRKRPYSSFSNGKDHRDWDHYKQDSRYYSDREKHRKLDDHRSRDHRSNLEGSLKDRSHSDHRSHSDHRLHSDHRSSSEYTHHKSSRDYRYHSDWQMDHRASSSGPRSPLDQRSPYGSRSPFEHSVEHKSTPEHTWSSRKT

B1: SDS3 (protein, UniProt Q9H7L9 1-328)
chain: MSAAGLLAPAPAQAGAPPAPEYYPEEDEELESAEDDERSCRGRESDEDTEDASETDLAKHDEEDYVEMKEQMYQDKLASLKRQLQQLQEGTLQEYQKRMKKLDQQYKERIRNAELFLQLETEQVERNYIKEKKAAVKEFEDKKVELKENLIAELEEKKKMIENEKLTMELTGDSMEVKPIMTRKLRRRPNDPVPIPDKRRKPAPAQLNYLLTDEQIMEDLRTLNKLKSPKRPASPSSPEHLPATPAESPAQRFEARIEDGKLYYDKRWYHKSQAIYLESKDNQKLSCVISSVGANEIWVRKTSDSTKMRIYLGQLQRGLFVIRRRSAA
- binding: binds

— publication PMC12575849
